SMILES strings stand for the structures. Structures can show the parent of a compound that is named as a salt. Some of the results follow. Plates or batches differ in their baseline, so values are only roughly comparable.

The test system of the experiment is E18 rat cortical neuron-glia co-culture. Kind of experiment: total nuclei (DAPI) / Olig2+ nuclei (ratio); higher = more depletion of OPC/OL lineage cells. The note with it: 1 µM; treatment time: 8 days (DIV5-DIV13).
On to `c1ccc(-c2ccc(C(c3ccccc3)n3ccnc3)cc2)cc1` (centres undefined) [Bifonazole], for which the total nuclei stood at 3.01.
The value for `COC(=O)Nc1nc2cc(C(=O)c3ccc(F)cc3)ccc2[nH]1` [Flubendazole] was 30.9; that for `CC(=O)NC[C@H]1CN(c2ccc(N3CCOCC3)c(F)c2)C(=O)O1` [linezolid] was 2.8.
In the case of `c1ccc2c(c1)CCCC2C1=NCCN1` (centres undefined) [Tyzine] it was 4.24; in that of `CCN1CCN(c2cc3c(cc2F)c(=O)c(C(=O)O)cn3C2CC2)CC1` [Enrofloxacin], 2.63; in that of `CC1CCN(CCCC(=O)c2ccc(F)cc2)CC1` [Melperone hydrochloride], 3.59.
In the case of `C[C@@](Cc1ccc(O)c(O)c1)(NN)C(=O)O` [Carbidopa] it was 3.61; in that of `COc1ccc(-c2cc(=O)c3c(OC)c(OC)c(OC)c(OC)c3o2)cc1OC` [Nobiletin], 6.78.
`CCN(CC)CCOC(=O)c1ccc(N)cc1` [Procaine]: the total nuclei amounted to 2.68.
The value for `O=c1[nH]cnc2c1ncn2[C@H]1CC[C@@H](CO)O1` [2',3'-Dideoxyinosine] was 3.03; that for `COc1cc2nc(N3CCN(C(=O)C4COc5ccccc5O4)CC3)nc(N)c2cc1OC` (centres undefined) [Doxazosin] was 2.6.
The value for `CC[C@H](C)C(=O)O[C@H]1C[C@@H](C)C=C2C=C[C@H](C)[C@H](CC[C@@H]3C[C@@H](O)CC(=O)O3)[C@H]21` [Lovastatin] was 13.5.
The value for `Nc1nc(=O)c2nc(CNc3ccc(C(=O)N[C@@H](CCC(=O)O)C(=O)O)cc3)cnc2[nH]1` [Folic acid] was 3.6.
Regarding `N#Cc1ccc(C(c2ccc(C#N)cc2)n2cncn2)cc1` [letrozole], the total nuclei is 3.3.

The values are drawn from the supplement of paper PMC4840960.
